Test results reported in the supplement of paper PMC12067093, “Discovery and optimisation of a covalent ligand for TRIM25 and its application to targeted protein ubiquitination” (Chemical Science, 2025).
The other results are listed elsewhere or left out.

Sequences of proteins named here, by UniProt entry; tags and fusion partners are left off. A change or cut given only in a name is not applied to a line headed by its entry.
UniProt Q96RP9: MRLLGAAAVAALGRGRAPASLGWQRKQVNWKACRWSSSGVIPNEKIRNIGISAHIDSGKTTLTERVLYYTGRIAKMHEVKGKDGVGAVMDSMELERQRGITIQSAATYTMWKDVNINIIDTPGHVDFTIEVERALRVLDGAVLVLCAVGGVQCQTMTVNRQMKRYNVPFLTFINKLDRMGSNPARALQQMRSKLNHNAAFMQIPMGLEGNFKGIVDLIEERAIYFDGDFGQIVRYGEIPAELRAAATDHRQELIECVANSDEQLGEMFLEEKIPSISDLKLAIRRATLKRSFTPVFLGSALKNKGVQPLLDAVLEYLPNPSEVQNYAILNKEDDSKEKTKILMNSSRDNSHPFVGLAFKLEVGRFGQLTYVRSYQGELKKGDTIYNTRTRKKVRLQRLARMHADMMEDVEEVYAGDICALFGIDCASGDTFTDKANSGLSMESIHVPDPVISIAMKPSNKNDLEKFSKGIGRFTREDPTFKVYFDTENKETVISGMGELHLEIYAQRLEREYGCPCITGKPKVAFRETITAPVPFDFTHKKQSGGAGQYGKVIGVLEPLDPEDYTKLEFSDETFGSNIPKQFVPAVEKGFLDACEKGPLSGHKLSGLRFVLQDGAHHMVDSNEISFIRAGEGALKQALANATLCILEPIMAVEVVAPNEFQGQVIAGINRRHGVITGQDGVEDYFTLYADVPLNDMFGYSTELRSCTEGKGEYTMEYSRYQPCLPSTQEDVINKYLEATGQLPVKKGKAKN
UniProt Q8WUU5: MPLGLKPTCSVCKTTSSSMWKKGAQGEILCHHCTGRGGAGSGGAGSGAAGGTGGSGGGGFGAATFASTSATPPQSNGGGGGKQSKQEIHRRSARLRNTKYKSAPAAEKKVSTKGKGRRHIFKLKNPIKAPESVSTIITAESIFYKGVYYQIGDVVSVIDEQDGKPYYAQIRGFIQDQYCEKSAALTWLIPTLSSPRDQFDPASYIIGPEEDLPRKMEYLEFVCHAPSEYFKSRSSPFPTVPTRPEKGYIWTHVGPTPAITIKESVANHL
UniProt Q92616, whole entry, looked up: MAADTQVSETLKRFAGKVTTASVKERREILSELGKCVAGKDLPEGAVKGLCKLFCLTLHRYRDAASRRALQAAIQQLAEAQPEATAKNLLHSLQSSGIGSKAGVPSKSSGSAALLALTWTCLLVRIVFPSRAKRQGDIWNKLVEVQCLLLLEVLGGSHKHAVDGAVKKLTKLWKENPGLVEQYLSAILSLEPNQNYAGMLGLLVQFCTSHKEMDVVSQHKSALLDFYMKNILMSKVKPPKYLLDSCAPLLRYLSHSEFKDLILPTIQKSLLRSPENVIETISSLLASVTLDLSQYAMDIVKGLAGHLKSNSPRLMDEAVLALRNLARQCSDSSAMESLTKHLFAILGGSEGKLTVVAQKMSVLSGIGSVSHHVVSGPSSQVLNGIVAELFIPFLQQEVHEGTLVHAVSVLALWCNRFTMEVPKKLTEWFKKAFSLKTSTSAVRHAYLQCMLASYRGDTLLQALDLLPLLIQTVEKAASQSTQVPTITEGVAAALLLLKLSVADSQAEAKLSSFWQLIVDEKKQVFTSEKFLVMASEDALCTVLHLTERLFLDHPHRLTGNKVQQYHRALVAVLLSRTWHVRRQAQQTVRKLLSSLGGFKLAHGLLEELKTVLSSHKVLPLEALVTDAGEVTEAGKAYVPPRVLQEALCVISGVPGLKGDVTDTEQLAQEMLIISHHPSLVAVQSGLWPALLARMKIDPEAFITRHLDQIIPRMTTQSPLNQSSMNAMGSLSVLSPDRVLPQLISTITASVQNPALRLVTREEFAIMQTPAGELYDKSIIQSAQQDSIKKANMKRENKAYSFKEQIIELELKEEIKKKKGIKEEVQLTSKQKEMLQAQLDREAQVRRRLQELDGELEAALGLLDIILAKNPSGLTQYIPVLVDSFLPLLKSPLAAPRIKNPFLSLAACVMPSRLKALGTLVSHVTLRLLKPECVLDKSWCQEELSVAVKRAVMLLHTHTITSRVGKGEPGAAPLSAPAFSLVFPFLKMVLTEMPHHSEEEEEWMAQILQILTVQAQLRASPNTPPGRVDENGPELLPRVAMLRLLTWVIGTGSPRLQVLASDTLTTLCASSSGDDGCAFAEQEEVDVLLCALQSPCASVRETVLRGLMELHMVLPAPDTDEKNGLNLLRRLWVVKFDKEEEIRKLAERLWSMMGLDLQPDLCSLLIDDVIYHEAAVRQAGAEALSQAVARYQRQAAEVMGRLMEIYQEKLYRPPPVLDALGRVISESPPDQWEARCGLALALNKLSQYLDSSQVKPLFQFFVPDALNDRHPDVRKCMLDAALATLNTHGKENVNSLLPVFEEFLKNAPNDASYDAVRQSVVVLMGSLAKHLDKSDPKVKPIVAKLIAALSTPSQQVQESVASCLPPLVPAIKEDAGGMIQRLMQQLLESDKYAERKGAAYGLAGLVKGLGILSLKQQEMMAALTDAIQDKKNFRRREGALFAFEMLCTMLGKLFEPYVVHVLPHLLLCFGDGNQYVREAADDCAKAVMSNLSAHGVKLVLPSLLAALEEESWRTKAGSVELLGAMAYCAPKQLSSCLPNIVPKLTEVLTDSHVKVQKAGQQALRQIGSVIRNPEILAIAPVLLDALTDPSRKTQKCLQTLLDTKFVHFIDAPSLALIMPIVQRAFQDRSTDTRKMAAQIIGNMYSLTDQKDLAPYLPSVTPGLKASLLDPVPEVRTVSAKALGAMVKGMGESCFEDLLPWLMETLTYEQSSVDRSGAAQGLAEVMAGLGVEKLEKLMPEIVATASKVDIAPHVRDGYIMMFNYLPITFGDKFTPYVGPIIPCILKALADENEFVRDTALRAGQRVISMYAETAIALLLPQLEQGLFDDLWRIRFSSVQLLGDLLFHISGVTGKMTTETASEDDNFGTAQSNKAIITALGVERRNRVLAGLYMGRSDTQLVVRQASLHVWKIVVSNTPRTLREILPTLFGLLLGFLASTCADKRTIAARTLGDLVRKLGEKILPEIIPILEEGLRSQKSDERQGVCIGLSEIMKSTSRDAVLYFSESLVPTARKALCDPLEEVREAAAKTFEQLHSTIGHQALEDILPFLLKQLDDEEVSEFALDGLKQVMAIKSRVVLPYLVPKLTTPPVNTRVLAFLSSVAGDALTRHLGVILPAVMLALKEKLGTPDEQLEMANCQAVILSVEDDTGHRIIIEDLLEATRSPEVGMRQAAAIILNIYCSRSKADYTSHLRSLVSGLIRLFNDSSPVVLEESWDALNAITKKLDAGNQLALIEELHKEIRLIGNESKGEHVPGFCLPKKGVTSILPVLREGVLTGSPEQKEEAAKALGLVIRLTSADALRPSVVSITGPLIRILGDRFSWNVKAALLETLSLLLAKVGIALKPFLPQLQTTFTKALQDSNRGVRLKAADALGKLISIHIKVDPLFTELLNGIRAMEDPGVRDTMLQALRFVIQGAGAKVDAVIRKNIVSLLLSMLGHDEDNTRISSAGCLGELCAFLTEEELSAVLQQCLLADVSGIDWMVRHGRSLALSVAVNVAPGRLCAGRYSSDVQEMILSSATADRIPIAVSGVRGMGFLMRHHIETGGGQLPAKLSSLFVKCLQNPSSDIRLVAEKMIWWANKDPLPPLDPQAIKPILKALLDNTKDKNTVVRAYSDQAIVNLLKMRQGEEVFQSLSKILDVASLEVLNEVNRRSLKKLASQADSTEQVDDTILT
UniProt O43716: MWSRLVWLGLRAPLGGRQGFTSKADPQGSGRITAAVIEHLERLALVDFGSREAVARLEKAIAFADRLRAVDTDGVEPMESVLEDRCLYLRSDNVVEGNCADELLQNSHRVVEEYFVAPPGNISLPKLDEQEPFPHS
UniProt O14908: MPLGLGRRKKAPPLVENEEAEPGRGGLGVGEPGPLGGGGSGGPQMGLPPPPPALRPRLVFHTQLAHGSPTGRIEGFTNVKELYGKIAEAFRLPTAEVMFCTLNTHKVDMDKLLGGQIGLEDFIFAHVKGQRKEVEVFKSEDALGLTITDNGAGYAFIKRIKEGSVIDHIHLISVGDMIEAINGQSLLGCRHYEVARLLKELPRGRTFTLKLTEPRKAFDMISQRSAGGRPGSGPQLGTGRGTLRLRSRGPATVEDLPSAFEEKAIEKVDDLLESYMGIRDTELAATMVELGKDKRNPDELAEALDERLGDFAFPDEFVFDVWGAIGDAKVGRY
UniProt Q8TF64: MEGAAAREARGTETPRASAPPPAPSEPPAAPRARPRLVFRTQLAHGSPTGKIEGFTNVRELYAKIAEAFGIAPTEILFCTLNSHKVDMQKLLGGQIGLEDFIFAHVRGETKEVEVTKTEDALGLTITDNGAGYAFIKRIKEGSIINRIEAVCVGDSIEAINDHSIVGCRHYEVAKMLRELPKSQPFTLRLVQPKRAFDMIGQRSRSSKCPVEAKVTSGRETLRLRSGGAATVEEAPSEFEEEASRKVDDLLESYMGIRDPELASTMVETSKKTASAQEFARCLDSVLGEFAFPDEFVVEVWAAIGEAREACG
UniProt P50440: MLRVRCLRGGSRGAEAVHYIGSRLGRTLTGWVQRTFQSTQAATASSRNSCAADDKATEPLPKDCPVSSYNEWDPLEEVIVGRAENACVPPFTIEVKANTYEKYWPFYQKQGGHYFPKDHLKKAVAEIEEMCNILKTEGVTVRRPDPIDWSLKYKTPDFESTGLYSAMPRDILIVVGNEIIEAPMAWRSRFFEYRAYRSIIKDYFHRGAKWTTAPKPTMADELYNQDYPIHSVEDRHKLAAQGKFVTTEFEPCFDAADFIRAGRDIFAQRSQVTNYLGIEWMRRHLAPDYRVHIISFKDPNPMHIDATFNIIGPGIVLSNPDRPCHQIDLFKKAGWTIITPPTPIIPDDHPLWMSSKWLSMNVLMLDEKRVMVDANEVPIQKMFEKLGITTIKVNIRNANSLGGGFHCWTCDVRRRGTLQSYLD
UniProt Q8IXK2: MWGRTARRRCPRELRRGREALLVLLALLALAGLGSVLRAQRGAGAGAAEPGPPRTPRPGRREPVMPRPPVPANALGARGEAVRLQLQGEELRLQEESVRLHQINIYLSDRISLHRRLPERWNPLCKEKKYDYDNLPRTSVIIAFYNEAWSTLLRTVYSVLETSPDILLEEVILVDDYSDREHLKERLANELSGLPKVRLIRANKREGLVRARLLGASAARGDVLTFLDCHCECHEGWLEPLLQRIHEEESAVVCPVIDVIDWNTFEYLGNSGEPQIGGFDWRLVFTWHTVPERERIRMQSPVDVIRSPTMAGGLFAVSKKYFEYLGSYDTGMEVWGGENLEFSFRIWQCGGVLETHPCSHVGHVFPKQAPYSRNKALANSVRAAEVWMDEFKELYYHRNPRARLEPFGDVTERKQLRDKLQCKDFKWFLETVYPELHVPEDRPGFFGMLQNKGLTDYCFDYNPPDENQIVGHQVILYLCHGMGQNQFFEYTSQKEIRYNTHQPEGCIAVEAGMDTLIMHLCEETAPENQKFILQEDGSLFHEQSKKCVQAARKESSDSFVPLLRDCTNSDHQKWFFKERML
UniProt Q9H2C0: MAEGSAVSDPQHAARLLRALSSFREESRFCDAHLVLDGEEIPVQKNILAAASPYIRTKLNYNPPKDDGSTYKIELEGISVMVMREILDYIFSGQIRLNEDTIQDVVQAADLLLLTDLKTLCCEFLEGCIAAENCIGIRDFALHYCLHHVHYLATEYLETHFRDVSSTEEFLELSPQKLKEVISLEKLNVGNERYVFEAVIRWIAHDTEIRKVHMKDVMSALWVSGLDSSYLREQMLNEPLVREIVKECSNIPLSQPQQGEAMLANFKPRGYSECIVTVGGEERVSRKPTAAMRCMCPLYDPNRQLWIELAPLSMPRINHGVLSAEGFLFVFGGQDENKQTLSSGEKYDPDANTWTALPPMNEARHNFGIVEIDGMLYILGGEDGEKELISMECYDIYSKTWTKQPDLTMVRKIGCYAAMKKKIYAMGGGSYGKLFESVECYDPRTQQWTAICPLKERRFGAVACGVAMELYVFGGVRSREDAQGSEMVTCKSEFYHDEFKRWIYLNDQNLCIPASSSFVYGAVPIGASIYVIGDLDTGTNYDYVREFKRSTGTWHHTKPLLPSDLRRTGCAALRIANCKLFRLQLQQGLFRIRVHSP

Compound: Cc1cc(ccc1-c1ccccc1)C(=O)N1CCCN(CC1)C(=O)CCl [compound 10]
Test: probe-labelled cysteine peptide fold change vs DMSO (competition) (log2 fold change); higher = less target engagement (more negative = stronger competition)
Settings: THP-1, incubation time: 4 h
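Note: competitive profiling in live THP-1 cells: cysteine peptides tagged with an iodoacetamide desthiobiotin (IA-DTB) probe, intensity after compound treatment relative to DMSO-treated cells.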

Target	probe-labelled cysteine peptide fold change (10 µM)	probe-labelled cysteine peptide fold change (50 µM)
GFM1_Q96RP9_256_AAATDHRQELIECVANSDEQLGEMFLEEK (UniProt Q96RP9)	-0.183	-0.436
GATAD1_Q8WUU5_12_PLGLKPTCSVCK (UniProt Q8WUU5)	0.113	-0.0989
GCN1_Q92616_449_HAYLQCMLASYR (UniProt Q92616)	0.122	0.273
GATC_O43716_99_SDNVVEGNCADELLQNSHR (UniProt O43716)	-0.533	-0.0176
GCN1_Q92616_2558_CLQNPSSDIR (UniProt Q92616)	0.0554	0.000447
GIPC1_O14908_189_EGSVIDHIHLISVGDMIEAINGQSLLGCR (UniProt O14908)	0.141	0.0323
GIPC3_Q8TF64_152+168_IEAVCVGDSIEAINDHSIVGCR (UniProt Q8TF64)	-0.127	-0.181
GATD1_Q8NB37_122_ILQHFHSESKPICAVGHGVAALCCATNEDR (UniProt Q8NB37)	0.0213	-0.0492
GATM_P50440_131_AVAEIEEMCNILK (UniProt P50440)	0.1	0.368
GIPC3_Q8TF64_79_IAEAFGIAPTEILFCTLNSHK (UniProt Q8TF64)	0.0835	0.142
GALNT12_Q8IXK2_231+233_GDVLTFLDCHCECHEGWLEPLLQR (UniProt Q8IXK2)	-0.113	-0.133
GAN_Q9H2C0_415_KIGCYAAMK (UniProt Q9H2C0)	-0.0112	-0.2
GEMIN5_Q8TEQ6_501_KTVYTLAWGPPVPPMSLGGEGDRPSLALYSCGGEGIVLQHNPWK (UniProt Q8TEQ6)	0.0135	-0.141

2 entries from above, as labelled records.
GAN_Q9H2C0_415_KIGCYAAMK (UniProt Q9H2C0)
  probe-labelled cysteine peptide fold change (10 µM) = -0.0112
  probe-labelled cysteine peptide fold change (50 µM) = -0.2
GEMIN5_Q8TEQ6_501_KTVYTLAWGPPVPPMSLGGEGDRPSLALYSCGGEGIVLQHNPWK (UniProt Q8TEQ6)
  probe-labelled cysteine peptide fold change (10 µM) = 0.0135
  probe-labelled cysteine peptide fold change (50 µM) = -0.141
